Settings: control samples containing no 25OHD

Row | Compound | concentration with detrimental effects to the assay signal | concentrations very well tolerated | concentrations with minor effects of decreasing signal of the assay
1 | O=C([O-])c1ccccc1O.[Na+] [sodium salicylate] | ≥ 4% | below 1% | 1-4%
2 | methyl β-cyclodextrin | ≥ 0.0125% |  | 

— US10197581B2, “Vitamin D assays” (Enzo Life Sciences, Inc., priority 2013, dated 2019)
